Measurements as given in PMC4011676.
These are yes or no findings as the source states them, for the method shown. In cells and extracts the contact can be indirect. These calls come from enrichment with a bait or labelling near it, and not all partners need be listed.

Biological target: HFSC-Atm (chicken Atm with the HFSC affinity tag) (chicken)
Assay: affinity purification with mass spectrometry; HFSC-Atm from DT40 lysate (0.5% NP-40, 150 mM NaCl, benzonase) on a gravity flow Strep-tagII column; SILAC against untagged WT cells mixed 1:1; samples before and after IR (10 Gy, 1 h recovery)

binding: binds
B1: MCM3 (chicken) (protein, UniProt Q5ZMN2 1-812)
chain: MAAPAGGLGDAELREAQRDYLDFLDDEEDQGVYHGKVRDMISDNQYRLLVNINDLRRRNEKRANRLLSNAFEELIAFQRALKDFVASVDATYAKQYEDFYIGLEGSFGSKHVSPRTLTACFLSCIVCVEGIVTKCSLIRPKVVRSVHYCPATKKTIERRYTDLTSLDAFPSSTVYPTKDEENNPLETEYGLSVYKDHQTISIQEMPEKAPAGQLPRSVDVILDDDLVDKVKPGDRIQVVGTYRCLPGKKGGYTSGTFRTILIACHIKQMSKDARPLYSANDVAKIKRFSKSRSKDIFNQLARSLAPSIHGHEFIKKALLCMLLGGVEKVLENGSRIRGDINILLIGDPSVAKSQLLRYVLGTAPRAVGTTGRGSSGVGLTAAVTTDQETGERRLEAGAMVLADRGVVCIDEFDKMSDIDRTAIHEVMEQGRVTIAKAGIHARLNSRCSVLAAANPVYGRYDQYKTPMENIGLQDSLLSRFDLLFIMLDQMDSEQDREISDHVLRMHRYRNPNEQDGDAMPLGSAVEILATDDPDFAQEEEQELQVYEKHDDLLHGPNRRKEKIVSMEFMRKYIHVAKMIKPVLTQESADYIAEEYSSLRSQNQMNSDIARTSPVTARTLETLIRLSTAHAKARMSKTVDLQDAEAALELVQFAYFKKVLEKEKKRKKQVEDDSETEKEEEEEETQPEKEGRKQRRKKARTEGEEESYDPYDFSDAEQEMPEVQAHTPKTPESSATGEAKKPELADPRLKAFKAALLEVFKSSHAQSVGLKNVMESINRDNPEPFSLAGVKVALAHMQDDNQIMVSDDIIFLI
